The chains are these.
B1: NOP10 (protein, UniProt Q9NPE3 1-64)
chain: MFLQYYLNEQGDRVYTLKKFDPMGQQTCSAHPARFSPDDKYSRHRITIKKRFKVLMTQQPRPVL
B2: GAR1 (protein, UniProt Q9NY12 1-217)
chain: MSFRGGGRGGFNRGGGGGGFNRGGSSNHFRGGGGGGGGGNFRGGGRGGFGRGGGRGGFNKGQDQGPPERVVLLGEFLHPCEDDIVCKCTTDENKVPYFNAPVYLENKEQIGKVDEIFGQLRDFYFSVKLSENMKASSFKKLQKFYIDPYKLLPLQRFLPRPPGEKGPPRGGGRGGRGGGRGGGGRGGGRGGGFRGGRGGGGGGFRGGRGGGFRGRGH
B3: dyskerin (protein, UniProt O60832 1-514)
chain: MADAEVIILPKKHKKKKERKSLPEEDVAEIQHAEEFLIKPESKVAKLDTSQWPLLLKNFDKLNVRTTHYTPLACGSNPLKREIGDYIRTGFINLDKPSNPSSHEVVAWIRRILRVEKTGHSGTLDPKVTGCLIVCIERATRLVKSQQSAGKEYVGIVRLHNAIEGGTQLSRALETLTGALFQRPPLIAAVKRQLRVRTIYESKMIEYDPERRLGIFWVSCEAGTYIRTLCVHLGLLLGVGGQMQELRRVRSGVMSEKDHMVTMHDVLDAQWLYDNHKDESYLRRVVYPLEKLLTSHKRLVMKDSAVNAICYGAKIMLPGVLRYEDGIEVNQEIVVITTKGEAICMAIALMTTAVISTCDHGIVAKIKRVIMERDTYPRKWGLGPKASQKKLMIKQGLLDKHGKPTDSTPATWKQEYVDYSESAKKEVVAEVVKAPQVVAEAAKTAKRKRESESESDETPPAAPQLIKKEKKKSKKDKKAKAGLESGAEPGDGDSDTTKKKKKKKKAKEVELVSE
B4: NHP2 (protein, UniProt Q9NX24 1-153)
chain: MTKIKADPDGPEAQAEACSGERTYQELLVNQNPIAQPLASRRLTRKLYKCIKKAVKQKQIRRGVKEVQKFVNKGEKGIMVLAGDTLPIEVYCHLPVMCEDRNLPYVYIPSKTDLGAAAGSKRPTCVIMVKPHEEYQEAYDECLEEVQSLPLPL

Chains of the proteins cited; added tags and fusions are not shown.
UniProt Q9BUR4: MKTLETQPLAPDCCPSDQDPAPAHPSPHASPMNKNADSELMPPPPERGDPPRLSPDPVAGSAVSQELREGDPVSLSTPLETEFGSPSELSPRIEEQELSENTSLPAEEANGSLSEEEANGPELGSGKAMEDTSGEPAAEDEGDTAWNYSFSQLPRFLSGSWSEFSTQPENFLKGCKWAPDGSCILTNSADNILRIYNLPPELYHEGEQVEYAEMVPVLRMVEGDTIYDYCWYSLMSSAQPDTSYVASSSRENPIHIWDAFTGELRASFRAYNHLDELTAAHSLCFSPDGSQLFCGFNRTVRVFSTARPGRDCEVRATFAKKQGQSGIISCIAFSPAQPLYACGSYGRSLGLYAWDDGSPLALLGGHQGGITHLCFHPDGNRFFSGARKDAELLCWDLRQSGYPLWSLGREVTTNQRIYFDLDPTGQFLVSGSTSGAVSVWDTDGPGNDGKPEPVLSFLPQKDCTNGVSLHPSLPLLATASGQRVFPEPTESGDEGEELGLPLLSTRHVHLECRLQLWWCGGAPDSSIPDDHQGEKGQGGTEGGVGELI
UniProt O14746: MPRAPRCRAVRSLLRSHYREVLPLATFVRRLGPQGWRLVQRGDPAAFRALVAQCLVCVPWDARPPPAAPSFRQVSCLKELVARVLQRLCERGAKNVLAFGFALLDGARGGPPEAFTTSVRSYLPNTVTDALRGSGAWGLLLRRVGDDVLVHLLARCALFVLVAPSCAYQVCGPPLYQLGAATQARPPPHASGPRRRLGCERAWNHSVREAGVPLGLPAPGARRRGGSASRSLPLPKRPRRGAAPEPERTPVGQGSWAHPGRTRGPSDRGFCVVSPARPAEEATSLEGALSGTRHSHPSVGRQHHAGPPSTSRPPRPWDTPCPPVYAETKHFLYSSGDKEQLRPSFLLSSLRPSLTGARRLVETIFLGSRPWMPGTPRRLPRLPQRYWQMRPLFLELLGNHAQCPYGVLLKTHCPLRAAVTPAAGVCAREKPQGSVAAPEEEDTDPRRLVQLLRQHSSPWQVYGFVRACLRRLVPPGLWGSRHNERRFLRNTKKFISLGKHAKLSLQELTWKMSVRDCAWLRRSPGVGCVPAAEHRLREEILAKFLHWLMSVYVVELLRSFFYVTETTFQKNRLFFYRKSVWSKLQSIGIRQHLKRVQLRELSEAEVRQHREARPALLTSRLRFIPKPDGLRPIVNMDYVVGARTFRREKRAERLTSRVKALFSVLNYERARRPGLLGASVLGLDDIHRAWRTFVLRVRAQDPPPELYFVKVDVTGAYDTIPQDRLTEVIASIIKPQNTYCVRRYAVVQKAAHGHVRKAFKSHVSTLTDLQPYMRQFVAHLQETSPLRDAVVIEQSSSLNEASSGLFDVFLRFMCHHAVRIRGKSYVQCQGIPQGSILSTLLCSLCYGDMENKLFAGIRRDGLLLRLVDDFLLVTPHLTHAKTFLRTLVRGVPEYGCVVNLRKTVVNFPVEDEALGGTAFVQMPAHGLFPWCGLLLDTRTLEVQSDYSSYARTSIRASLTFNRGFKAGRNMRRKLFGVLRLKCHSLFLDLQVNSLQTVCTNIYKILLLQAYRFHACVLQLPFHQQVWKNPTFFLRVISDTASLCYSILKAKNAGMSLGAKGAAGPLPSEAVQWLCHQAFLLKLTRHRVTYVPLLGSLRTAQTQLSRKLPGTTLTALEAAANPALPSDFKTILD

These are yes or no findings as the source states them, for the method shown. Binding seen in cells or lysates may run through a third protein. These calls come from enrichment with a bait or labelling near it, and not all partners need be listed.

One assay concerns the target telomerase Cajal body protein 1 (TCAB1), twin-strep-tagged (human) (UniProt Q9BUR4). The assay can be described thus: affinity purification with mass spectrometry; two-step tandem affinity purification from lysate of Tc6-3 cells co-expressing hTR: Strep-Tactin XT resin (twin-strep TCAB1), eluted with 50 mM biotin, then anti-Flag resin (triple Flag-TERT), eluted with Flag peptide; buffer A 20 mM HEPES pH 7.9, 200 mM KCl, 10% glycerol, 2 mM MgCl2, 1 mM EDTA, 0.1% IgePal CA-630; purified RNP analysed by mass spectrometry.
For the molecule “telomerase reverse transcriptase (TERT) catalytic subunit, triple Flag-tagged (from UniProt O14746 1-1132) (enzyme)”, the binding entry was “binds”. On the same count and under the same terms, the result for B1 reads “binds”; that for B2, “binds”; that for B3, “binds”.

The target in the next assay is telomerase reverse transcriptase (TERT) catalytic subunit, triple Flag-tagged (human) (UniProt O14746). Described as above.
With B4, the binding result was “binds”.

Regarding B1, the binding result was “binds”. In the case of B2, the binding result is “binds”.

Turning to B3, the binding result is “binds”.

These data come from publication PMC8648750.
